Measurements from article PMC5115893.
No constants are given. Whether binding was seen depends on the method and setting. Binding seen in cells or lysates may run through a third protein. Some results given as binding are weak or reduced against the parent protein; the word gives no strength.

Protein sequences, listed by entry. Tags and fused reporters are not part of them. Residues count along the entry.
UniProt Q8JZQ2, residues 67-802: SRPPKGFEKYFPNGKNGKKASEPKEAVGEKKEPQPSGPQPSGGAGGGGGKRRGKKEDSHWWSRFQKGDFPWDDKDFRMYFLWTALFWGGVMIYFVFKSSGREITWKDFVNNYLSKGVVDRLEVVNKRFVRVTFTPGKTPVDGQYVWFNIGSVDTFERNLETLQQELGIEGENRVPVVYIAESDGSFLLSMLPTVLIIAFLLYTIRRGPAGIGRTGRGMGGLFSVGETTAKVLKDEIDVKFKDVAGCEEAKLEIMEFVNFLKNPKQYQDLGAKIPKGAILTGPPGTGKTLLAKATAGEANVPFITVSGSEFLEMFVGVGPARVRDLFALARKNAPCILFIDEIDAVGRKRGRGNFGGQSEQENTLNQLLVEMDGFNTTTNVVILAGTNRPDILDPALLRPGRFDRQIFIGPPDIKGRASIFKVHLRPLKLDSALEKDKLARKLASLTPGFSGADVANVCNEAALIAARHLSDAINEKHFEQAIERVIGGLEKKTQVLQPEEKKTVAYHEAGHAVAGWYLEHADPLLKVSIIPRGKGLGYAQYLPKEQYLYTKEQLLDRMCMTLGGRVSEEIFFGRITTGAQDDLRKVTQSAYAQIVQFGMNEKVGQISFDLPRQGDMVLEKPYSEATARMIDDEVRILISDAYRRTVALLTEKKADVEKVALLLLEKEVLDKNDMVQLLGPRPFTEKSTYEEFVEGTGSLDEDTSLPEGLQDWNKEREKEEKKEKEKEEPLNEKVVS
UniProt Q9Y4W6, residues 67-797: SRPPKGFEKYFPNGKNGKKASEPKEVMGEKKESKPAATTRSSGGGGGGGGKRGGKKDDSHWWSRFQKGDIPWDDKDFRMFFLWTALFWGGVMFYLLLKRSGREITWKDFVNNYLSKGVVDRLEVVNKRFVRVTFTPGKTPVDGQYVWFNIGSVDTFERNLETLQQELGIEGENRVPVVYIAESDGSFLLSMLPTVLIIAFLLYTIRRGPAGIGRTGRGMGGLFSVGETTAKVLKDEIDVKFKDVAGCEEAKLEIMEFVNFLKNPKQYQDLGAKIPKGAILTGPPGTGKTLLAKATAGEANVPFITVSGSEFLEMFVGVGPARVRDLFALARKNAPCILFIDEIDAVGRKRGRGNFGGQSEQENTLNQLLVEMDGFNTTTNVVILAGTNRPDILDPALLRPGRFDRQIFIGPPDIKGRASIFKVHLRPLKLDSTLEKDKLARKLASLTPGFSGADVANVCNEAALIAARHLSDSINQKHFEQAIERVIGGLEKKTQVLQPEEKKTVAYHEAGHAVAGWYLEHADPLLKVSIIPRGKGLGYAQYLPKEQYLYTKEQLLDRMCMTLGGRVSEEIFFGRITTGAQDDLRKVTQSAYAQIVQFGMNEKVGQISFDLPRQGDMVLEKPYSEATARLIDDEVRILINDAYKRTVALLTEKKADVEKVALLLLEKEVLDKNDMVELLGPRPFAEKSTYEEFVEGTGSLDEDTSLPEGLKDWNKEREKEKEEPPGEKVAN

Legend:
[1] = target: T1, caveolin-1 (mouse (endogenous in MEFs)) (UniProt P49817); test: co-IP; mitochondrial fractions of wild type MEFs, untreated or treated with 150 μM hydrogen peroxide for 2 hours and recovered 7 days; immunoprecipitated with anti-caveolin-1, blotted with anti-AFG3L2; 10 mM Tris pH 8.0, 0.15 M NaCl, 5 mM EDTA, 1% Triton X-100, 60 mM octyl glucoside, overnight at 4°C
T1 sequence: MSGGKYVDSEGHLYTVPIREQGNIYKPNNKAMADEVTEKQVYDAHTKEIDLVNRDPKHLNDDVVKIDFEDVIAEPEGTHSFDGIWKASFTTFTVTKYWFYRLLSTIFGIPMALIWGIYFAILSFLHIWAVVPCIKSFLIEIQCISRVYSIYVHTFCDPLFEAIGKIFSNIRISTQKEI

[2] = target: GST-Cav-1-FL (UniProt Q03135); test: pull-down; GST-Cav-1 fusion proteins on glutathione-agarose beads; pre-cleared lysates of NIH 3T3 cells transiently transfected with AFG3L2-myc, diluted in 10 mM Tris pH 8.0, 0.1% Tween 20; overnight at 4°C; beads washed 6 times with PBS; only the target purified
[3] = target: GST-Cav-1(82-101) (UniProt Q03135); test: as above

binding [1]	binding [2]	binding [3]	Substance
binds			AFG3L2 (from UniProt Q8JZQ2 67-802)
	binds	binds	AFG3L2-myc (from UniProt Q9Y4W6 67-797)
